Assay results: article PMC5153812
No constants are given. Whether binding was seen depends on the method and setting. In cells and extracts the contact can be indirect. Some entries that bind do so weakly or less than the wild type.

Protein sequences, listed by entry. Tags and fused reporters are not part of them.
UniProt Q9UBF6: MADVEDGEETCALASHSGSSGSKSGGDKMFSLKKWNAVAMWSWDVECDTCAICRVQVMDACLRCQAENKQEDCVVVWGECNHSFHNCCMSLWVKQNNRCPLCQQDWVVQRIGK
UniProt Q93034: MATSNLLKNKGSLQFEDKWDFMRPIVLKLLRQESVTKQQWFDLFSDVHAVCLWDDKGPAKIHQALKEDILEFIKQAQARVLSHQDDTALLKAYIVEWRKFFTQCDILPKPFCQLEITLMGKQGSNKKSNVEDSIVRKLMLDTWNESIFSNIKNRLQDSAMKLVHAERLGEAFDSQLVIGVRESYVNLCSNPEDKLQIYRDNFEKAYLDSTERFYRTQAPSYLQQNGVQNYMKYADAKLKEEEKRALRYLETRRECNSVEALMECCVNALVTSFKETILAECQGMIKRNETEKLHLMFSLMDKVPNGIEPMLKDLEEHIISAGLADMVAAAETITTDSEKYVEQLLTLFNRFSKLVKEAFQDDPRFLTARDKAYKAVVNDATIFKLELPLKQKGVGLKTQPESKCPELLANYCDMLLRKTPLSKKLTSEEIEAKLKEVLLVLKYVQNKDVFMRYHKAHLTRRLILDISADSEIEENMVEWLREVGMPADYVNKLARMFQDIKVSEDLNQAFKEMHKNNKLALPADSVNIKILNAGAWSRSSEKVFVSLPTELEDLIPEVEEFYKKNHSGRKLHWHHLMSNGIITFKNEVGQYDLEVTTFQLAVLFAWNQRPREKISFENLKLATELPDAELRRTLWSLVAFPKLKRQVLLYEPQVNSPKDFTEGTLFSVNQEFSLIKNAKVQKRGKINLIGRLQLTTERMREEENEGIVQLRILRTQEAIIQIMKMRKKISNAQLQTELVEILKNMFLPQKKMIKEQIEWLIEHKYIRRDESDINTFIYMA

Target: endogenous SAG (human (endogenous in DU145)) (UniProt Q9UBF6)
Test: co-IP; endogenous proteins; sub-confluent DU145 cells lysed and IP with anti-SAG (Fig. 3c), anti-PHLPP1 (Fig. 3d) or anti-DEPTOR Ab (Fig. 3e), along with IgG control, IB with indicated Abs; physiological unstressed condition

binding: binds
Substance: Cul5 (from UniProt Q93034 1-780)
